Data taken from patent US20110318757A1.
Changes are numbered by the printed parent chain. Results are given in words; binding and its absence hold for the method and conditions named. Some binding calls cover weakened binding; strength is not graded here. Values belong to the binder of their own block, whether it stands above or below them.

Columns and labels:
[1] = target: 32-mer MUC1 peptide (human); test: ELISA, 32-mer MUC1 peptide immobilized in microtitre wells, IgG about 0.03 to 8000 ng/well, A450-A620 (preliminary results according to the legend)
[2] = target: 32-mer MUC1 peptide (human); test: titration ELISA, MUC1 peptide (32mer Cys) 50 ng/well, IgG diluted 1:3.16 from 100 µg/mL, detection goat anti-human IgG (Fc) HRP, TMB; mean of three plates, BSA value subtracted; A450-A620
[3] = target: 32-mer MUC1 peptide (human); test: ELISA on MUC1 peptide (32 mer cys) 50 ng/well after storage at 37 °C for 0-28 days (20 µg/ml solution mixed 1:1 with PBS, inactivated human serum or human serum); detection goat anti-human IgG (Fc) HRP, TMB; signal in % of day 0
[4] = target: 32-mer MUC1 peptide (human); test: ELISA, IgG on coated 32-mer MUC1 peptide

binding [1]: binds | binding [2]: binds | binding [3]: binds
B1: R764-D11 (HT186-D11 IgG) (antibody, V domains shown)
VH: QMQLVQSEAELKKPGASVKVSCKASGYSFTGHYMHWVRQAPGQGLEWMGWIDPVTGGTKYAQNFQGWVTMTRDTSIRTAYLELSRLRSDDTAMYYCAREVTGDRGQFDKWGQGTLVTVAS
VL: QSVLTQPPSVSVAPGKTARITCGGNNIGSKSVHWYQQKPGQAPALVIYYGSNRPSGIPERFSGSNSGNTATLTISRVEAGDEADYYCQVWDSSSDWVFGGGTKLTVLG

binding [4]: binds | binding [1]: binds | binding [2]: binds
B2: R764-G2 (HT186-G2 IgG) (antibody, V domains shown)
VH: B1 VH with Q1R, E8G, L11V, V20L, S28T, T30A, Q43R, L81M
VL: B1 VL with A44V, N52D, P54S

binding [1]: binds | binding [2]: binds
B3: R764-B7 (HT186-B7 IgG) (antibody, V domains shown)
VH: B1 VH with E8G, L11V, S28T, L81M
VL: B1 VL with N52Y, S66Y, S75R
